Results taken from doi:10.1101/777128.
No constants are given. Whether binding was seen depends on the method and setting. Binding seen in cells or lysates may run through a third protein. Some entries that bind do so weakly or less than the wild type. Where a sequence is shown, tags or fusion partners need not be part of it. Each block holds one molecule with its values, some of them ahead of it.

The chains behind the UniProt entries cited, without tags or fusion partners.
UniProt Q61025: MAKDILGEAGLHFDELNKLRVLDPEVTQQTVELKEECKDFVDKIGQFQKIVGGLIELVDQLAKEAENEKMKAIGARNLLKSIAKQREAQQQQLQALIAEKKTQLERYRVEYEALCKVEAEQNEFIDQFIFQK
UniProt P46937: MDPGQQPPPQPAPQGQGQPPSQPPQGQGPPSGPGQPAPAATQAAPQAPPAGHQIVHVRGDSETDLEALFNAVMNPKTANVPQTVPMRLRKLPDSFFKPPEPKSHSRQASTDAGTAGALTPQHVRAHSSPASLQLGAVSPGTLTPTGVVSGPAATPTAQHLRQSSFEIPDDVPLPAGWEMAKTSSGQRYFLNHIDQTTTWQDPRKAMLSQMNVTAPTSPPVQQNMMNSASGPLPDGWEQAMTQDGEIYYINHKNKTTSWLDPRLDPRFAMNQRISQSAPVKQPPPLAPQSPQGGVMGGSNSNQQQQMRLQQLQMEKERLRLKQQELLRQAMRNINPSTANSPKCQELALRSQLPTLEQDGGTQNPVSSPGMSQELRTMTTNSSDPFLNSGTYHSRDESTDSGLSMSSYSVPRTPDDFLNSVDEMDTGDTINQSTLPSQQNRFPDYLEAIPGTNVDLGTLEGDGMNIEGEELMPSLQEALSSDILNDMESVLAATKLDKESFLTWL

Columns and labels:
Flag-Amotl1 = target: T1, Flag-Amotl1 (UniProt Q9D4H4); assay: co-IP
T1 sequence: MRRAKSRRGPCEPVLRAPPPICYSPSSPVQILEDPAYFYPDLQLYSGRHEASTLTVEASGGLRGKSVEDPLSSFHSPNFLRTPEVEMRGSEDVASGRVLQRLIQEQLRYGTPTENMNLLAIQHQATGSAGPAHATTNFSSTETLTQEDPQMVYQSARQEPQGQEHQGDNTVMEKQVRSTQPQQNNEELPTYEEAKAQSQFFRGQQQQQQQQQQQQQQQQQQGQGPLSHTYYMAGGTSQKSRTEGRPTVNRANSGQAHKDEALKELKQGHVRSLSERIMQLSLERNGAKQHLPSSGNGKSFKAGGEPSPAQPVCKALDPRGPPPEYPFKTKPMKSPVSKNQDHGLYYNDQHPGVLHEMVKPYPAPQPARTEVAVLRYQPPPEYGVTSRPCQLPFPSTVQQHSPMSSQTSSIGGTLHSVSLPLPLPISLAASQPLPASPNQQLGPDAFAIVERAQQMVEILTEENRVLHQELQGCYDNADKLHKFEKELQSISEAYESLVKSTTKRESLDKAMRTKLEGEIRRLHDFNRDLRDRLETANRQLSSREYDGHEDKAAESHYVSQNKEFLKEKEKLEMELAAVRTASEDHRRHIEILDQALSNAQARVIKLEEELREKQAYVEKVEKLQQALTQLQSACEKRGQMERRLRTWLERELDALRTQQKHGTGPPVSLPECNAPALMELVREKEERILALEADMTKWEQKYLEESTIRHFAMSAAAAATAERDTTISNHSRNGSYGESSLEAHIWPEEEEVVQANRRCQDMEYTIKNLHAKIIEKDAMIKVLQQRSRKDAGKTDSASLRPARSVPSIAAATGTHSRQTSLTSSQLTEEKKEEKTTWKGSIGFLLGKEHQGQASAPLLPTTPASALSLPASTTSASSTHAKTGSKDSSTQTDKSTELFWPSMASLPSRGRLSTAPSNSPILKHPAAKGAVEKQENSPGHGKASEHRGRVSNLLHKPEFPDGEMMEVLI

IFT88-GFP = target: T2, IFT88-GFP (UniProt Q13099); assay: co-IP
T2 sequence: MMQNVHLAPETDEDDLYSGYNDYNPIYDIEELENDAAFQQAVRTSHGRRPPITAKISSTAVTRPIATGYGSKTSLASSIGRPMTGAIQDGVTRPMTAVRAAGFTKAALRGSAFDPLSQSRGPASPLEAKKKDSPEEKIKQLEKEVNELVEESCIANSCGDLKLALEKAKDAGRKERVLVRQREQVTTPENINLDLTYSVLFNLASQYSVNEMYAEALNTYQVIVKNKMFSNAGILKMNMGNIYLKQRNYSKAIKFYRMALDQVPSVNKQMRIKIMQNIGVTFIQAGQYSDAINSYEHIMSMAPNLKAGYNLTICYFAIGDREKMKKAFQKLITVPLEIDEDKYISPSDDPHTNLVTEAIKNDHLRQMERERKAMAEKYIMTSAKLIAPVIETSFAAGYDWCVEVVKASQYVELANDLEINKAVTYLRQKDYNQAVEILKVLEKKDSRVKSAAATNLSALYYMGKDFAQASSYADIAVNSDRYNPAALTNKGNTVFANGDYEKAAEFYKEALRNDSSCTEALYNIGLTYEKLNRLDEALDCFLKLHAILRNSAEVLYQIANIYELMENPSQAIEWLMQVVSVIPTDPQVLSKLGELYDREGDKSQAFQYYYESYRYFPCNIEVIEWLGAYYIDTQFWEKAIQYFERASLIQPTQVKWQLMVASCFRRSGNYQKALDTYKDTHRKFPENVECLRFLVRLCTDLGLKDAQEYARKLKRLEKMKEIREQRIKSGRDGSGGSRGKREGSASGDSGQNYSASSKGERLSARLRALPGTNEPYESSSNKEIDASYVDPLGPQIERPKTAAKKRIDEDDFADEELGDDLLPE

binding (Flag-Amotl1): binds
Molecule: IFT20-GFP (from UniProt Q61025 1-132)

binding (Flag-Amotl1): binds
Molecule: endogenous YAP1 (from UniProt P46937 1-504)

binding (IFT88-GFP): binds
B1: HA-Amotl1 (protein, UniProt Q9D4H4 1-968)
chain: T1 sequence
